No constants are given. Whether binding was seen depends on the method and setting. Binding seen in cells or lysates may run through a third protein. A yes stands for co-enrichment or nearness to the bait. Other partners may have been found. For part of these data: No binding means not detected with the bait.
Columns and labels:
[1] = target: Akt (protein kinase B), Akt1 (mouse (endogenous in Neuro 2A)) (UniProt P31750); assay: affinity purification with mass spectrometry; anti-Akt antibody fixed on the beads via DSS but without DSP-crosslinking, Neuro 2A lysate, nanoLC-MS/MS
[2] = target: Akt (protein kinase B), Akt1 (mouse (endogenous in Neuro 2A)) (UniProt P31750); assay: condition: only with neither DSS- nor DSP-crosslinking; affinity purification with mass spectrometry; conventional co-IP with neither DSS- nor DSP-crosslinking: protein A/G agarose with anti-Akt antibody, pre-cleared Neuro 2A lysate overnight, five washes, elution in Laemmli buffer, nanoLC-MS/MS
[3] = target: Akt (protein kinase B), Akt1 (mouse (endogenous in Neuro 2A)) (UniProt P31750); assay: affinity purification with mass spectrometry; two-step crosslinking co-IP: anti-Akt antibody fixed on protein A/G agarose with DSS, incubated overnight at 4°C with pre-cleared Neuro 2A lysate (1.5 mg protein; PBS, 1% NP-40), then 1.6 mM DSP for 2 h, five washes (25 mM Tris, 150 mM NaCl, 1 mM EDTA, 1% NP-40, 5% glycerol, pH 7.4), elution in Laemmli buffer, SDS-PAGE, nanoLC-MS/MS; cells with or without IGF-1 (10 ng/mL, 10 min); negative control serum IgG or secondary antibody

By UniProt entry, the sequences of proteins in these tests, tags left out. Where a name states a change or a piece, a line headed by the entry shows the natural chain unless it says otherwise.
UniProt P31750: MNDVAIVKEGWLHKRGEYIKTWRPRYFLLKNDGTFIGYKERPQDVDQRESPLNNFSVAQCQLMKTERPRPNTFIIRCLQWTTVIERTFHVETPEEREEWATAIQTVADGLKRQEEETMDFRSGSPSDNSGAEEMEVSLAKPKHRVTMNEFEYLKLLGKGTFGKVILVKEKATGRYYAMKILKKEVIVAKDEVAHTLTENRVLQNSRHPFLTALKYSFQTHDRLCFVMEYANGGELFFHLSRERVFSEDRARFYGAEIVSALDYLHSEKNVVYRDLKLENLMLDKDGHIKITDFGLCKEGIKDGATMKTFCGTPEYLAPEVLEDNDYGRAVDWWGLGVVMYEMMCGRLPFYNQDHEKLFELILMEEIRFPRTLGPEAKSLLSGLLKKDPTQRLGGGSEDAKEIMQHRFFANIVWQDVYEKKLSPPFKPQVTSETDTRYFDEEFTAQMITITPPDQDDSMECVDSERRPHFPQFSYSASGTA
UniProt O35685: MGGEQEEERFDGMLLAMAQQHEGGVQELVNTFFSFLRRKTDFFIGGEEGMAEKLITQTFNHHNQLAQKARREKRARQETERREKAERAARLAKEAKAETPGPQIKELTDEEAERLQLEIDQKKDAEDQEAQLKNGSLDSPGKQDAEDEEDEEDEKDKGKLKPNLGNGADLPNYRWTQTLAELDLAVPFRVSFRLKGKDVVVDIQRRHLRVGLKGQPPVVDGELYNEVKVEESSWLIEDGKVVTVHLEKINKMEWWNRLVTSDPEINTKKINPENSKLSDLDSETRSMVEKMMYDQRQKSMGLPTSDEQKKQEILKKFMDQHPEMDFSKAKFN
UniProt O35129: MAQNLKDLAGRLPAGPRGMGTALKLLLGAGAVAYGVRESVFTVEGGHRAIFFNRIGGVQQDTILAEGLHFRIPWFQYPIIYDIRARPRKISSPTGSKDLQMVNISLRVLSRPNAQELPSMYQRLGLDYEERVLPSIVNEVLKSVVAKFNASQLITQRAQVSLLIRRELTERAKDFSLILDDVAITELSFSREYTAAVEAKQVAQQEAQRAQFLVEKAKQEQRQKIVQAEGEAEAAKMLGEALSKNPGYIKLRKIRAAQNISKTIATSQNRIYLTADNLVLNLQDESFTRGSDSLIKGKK
UniProt P63101: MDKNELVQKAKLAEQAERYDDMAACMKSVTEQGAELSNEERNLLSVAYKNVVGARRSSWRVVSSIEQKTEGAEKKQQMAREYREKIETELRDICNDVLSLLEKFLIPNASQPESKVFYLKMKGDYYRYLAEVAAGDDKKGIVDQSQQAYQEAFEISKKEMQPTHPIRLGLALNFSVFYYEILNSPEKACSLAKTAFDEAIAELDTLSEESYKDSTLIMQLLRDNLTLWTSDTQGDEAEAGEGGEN
UniProt P63085: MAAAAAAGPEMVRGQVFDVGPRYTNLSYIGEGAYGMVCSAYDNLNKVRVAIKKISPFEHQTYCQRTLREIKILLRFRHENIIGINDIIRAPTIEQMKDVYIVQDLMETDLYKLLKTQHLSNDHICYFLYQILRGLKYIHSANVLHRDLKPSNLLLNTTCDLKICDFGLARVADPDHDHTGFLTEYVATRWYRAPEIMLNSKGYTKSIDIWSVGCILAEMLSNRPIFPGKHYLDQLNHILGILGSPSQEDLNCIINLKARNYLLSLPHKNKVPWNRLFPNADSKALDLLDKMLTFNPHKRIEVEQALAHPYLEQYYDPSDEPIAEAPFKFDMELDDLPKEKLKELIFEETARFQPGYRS

| binding [2] | binding [3] | Substance | binding [1] |
| --- | --- | --- | --- |
| no binding | binds | nuclear distribution gene C (Nudc, also named nuclear migration gene C) (from UniProt O35685 1-332) | no binding (only without DSP-crosslinking) |
| no binding | binds | prohibitin-2 (from UniProt O35129 1-299) | no binding (only without DSP-crosslinking) |

Continued, substance first:

| Substance | binding [2] | binding [3] | binding [1] |
| --- | --- | --- | --- |
| 14-3-3 ζ/δ (from UniProt P63101 1-245) | no binding | binds | no binding (only without DSP-crosslinking) |
| extracellular regulated kinase-1 and -2 (ERK1/2) (from UniProt P63085 1-358) | no binding | binds | binds |
| valosin-containing protein (VCP) (from UniProt Q01853 1-806) | no binding | binds | no binding (only without DSP-crosslinking) |

Reference: PMC3629208
